# Data published in the supplement of paper PMC8728848.
# The other results are listed elsewhere or left out.
# How the values were obtained:
# Assay in all cases: glycan array binding signal (z-score within array); higher = stronger binding
# Conditions in all cases: glycan notation: IUPAC condensed, linker removed
# [1] = target: Gal3S4S(b1-4)GlcNAc
# Method in brief: (§1)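 Arrays were curated from the Consortium for Functional Glycomics database, 3228 in total, and kept only where the protein sequence was available. Binding is expressed as a within-array Z-score. This score was averaged across arrays of the same protein sequence at different concentrations or buffers and across linkers, and negative values can be read as non-binding.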
# [2] = target: Gal3S6S(b1-4)GlcNAc
# Method in brief: as §1
# [3] = target: Gal3S6S(b1-4)GlcNAc6S
# Method in brief: as §1
# [4] = target: Gal4S(b1-4)GlcNAc
# Method in brief: as §1
# [5] = target: Gal4S6S(b1-4)GlcNAc
# Method in brief: as §1
# [6] = target: Gal6P(b1-4)GlcNAc
# Method in brief: as §1
# [7] = target: Gal6S(b1-3)GlcNAc
# Method in brief: as §1
# [8] = target: Gal6S(b1-3)GlcNAc6S
# Method in brief: as §1
# [9] = target: Gal6S(b1-4)Glc
# Method in brief: as §1
# [10] = target: Gal6S(b1-4)Glc6S
# Method in brief: as §1
# [11] = target: Gal6S(b1-4)GlcNAc
# Method in brief: as §1
# [12] = target: Gal6S(b1-4)GlcNAc6S
# Method in brief: as §1
# [13] = target: GalNAc(a1-3)Gal
# Method in brief: as §1
# [14] = target: GalNAc(a1-3)GalNAc
# Method in brief: as §1
# [15] = target: GalNAc(a1-3)GalNAc(b1-3)Gal(a1-4)Gal(b1-4)Glc
# Method in brief: as §1
# [16] = target: GalNAc(a1-3)GalNAc(b1-3)Gal(a1-4)Gal(b1-4)GlcNAc
# Method in brief: as §1
# [17] = target: GalNAc(b1-3)Gal
# Method in brief: as §1
# [18] = target: GalNAc(b1-3)Gal(a1-4)Gal(b1-4)GlcNAc
# Method in brief: as §1
# [19] = target: GalNAc(b1-3)Gal(a1-4)Gal(b1-4)GlcNAc(b1-3)Gal(b1-4)Glc
# Method in brief: as §1
# [20] = target: GalNAc(b1-3)Gal(a1-6)Gal(b1-4)Glc
# Method in brief: as §1
# [21] = target: GalNAc(b1-3)GalNAc
# Method in brief: as §1
# [22] = target: GalNAc(b1-3)GlcNAc
# Method in brief: as §1
# [23] = target: GalNAc(b1-4)Gal(b1-4)Glc
# Method in brief: as §1
# [24] = target: GalNAc(b1-4)GlcNAc
# Method in brief: as §1
# [25] = target: GalNAc(b1-4)GlcNAc(b1-2)Man
# Method in brief: as §1
# [26] = target: GalNAc(b1-4)GlcNAc(b1-2)Man(a1-3)[GalNAc(b1-4)GlcNAc(b1-2)Man(a1-6)]Man(b1-4)GlcNAc(b1-4)GlcNAc
# Method in brief: as §1
# [27] = target: GalNAc(b1-4)GlcNAc(b1-3)GalNAc(b1-4)GlcNAc
# Method in brief: as §1
# [28] = target: GalNAc(b1-4)GlcNAc6S
# Method in brief: as §1
# [29] = target: GalNAc(b1-6)GalNAc
# Method in brief: as §1
# [30] = target: GalNAc3S(b1-4)GlcNAc
# Method in brief: as §1
# [31] = target: GalNAc3S(b1-4)GlcNAc3S
# Method in brief: as §1
# [32] = target: GalNAc3S(b1-4)[Fuc(a1-3)]GlcNAc
# Method in brief: as §1
# [33] = target: GalNAc4S6S(b1-4)GlcNAc
# Method in brief: as §1
# [34] = target: GalNAc6S(b1-4)GlcNAc
# Method in brief: as §1
# [35] = target: Glc(a1-4)Glc
# Method in brief: as §1
# [36] = target: Glc(a1-4)Glc(a1-4)Glc(a1-4)Glc
# Method in brief: as §1
# [37] = target: Glc(a1-6)Glc(a1-6)Glc
# Method in brief: as §1
# [38] = target: Glc(a1-6)Glc(a1-6)Glc(a1-6)Glc
# Method in brief: as §1
binder,measurement,setting,value
"MtEccB1 (Mycobacterium tuberculosis H37Rv), O69734 (protein) MGLRLTTKVQVSGWRFLLRRLEHAIVRRDTRMFDDPLQFYSRSIALGIVVAVLILAGAALLAYFKPQGKLGGTSLFTDRATNQLYVLLSGQLHPVYNLTSARLVLGNPANPATVKSSELSKLPMGQTVGIPGAPYATPVSAGSTSIWTLCDTVARADSTSPVVQTAVIAMPLEIDASIDPLQSHEAVLVSYQGETWIVTTKGRHAIDLTDRALTSSMGIPVTARPTPISEGMFNALPDMGPWQLPPIPAAGAPNSLGLPDDLVIGSVFQIHTDKGPQYYVVLPDGIAQVNATTAAALRATQAHGLVAPPAMVPSLVVRIAERVYPSPLPDEPLKIVSRPQDPALCWSWQRSAGDQSPQSTVLSGRHLPISPSAMNMGIKQIHGTATVYLDGGKFVALQSPDPRYTESMYYIDPQGVRYGVPNAETAKSLGLSSPQNAPWEIVRLLVDGPVLSKDAALLEHDTLPADPSPRKVPAGASGAP",glycan array binding signal (z-score),[1],-0.042
same,glycan array binding signal (z-score),[2],0.192
same,glycan array binding signal (z-score),[3],3.9
same,glycan array binding signal (z-score),[4],-0.41
same,glycan array binding signal (z-score),[5],3.03
same,glycan array binding signal (z-score),[6],-0.972
same,glycan array binding signal (z-score),[7],1.01
same,glycan array binding signal (z-score),[8],0.081
same,glycan array binding signal (z-score),[9],0.586
same,glycan array binding signal (z-score),[10],-0.71
same,glycan array binding signal (z-score),[11],0.062
same,glycan array binding signal (z-score),[12],-0.899
same,glycan array binding signal (z-score),[13],-0.394
same,glycan array binding signal (z-score),[14],-0.719
same,glycan array binding signal (z-score),[15],-0.822
same,glycan array binding signal (z-score),[16],-2.02
same,glycan array binding signal (z-score),[17],-1.19
same,glycan array binding signal (z-score),[18],0.639
same,glycan array binding signal (z-score),[19],0.931
same,glycan array binding signal (z-score),[20],-0.145
same,glycan array binding signal (z-score),[21],-0.908
same,glycan array binding signal (z-score),[22],-1.09
same,glycan array binding signal (z-score),[23],-0.899
same,glycan array binding signal (z-score),[24],1.29
same,glycan array binding signal (z-score),[25],0.753
same,glycan array binding signal (z-score),[26],-1.04
same,glycan array binding signal (z-score),[27],-0.216
same,glycan array binding signal (z-score),[28],-0.408
same,glycan array binding signal (z-score),[29],-1.22
same,glycan array binding signal (z-score),[30],-0.943
same,glycan array binding signal (z-score),[31],1.69
same,glycan array binding signal (z-score),[32],1.06
same,glycan array binding signal (z-score),[33],0.026
same,glycan array binding signal (z-score),[34],-1.3
same,glycan array binding signal (z-score),[35],-0.595
same,glycan array binding signal (z-score),[36],0.166
same,glycan array binding signal (z-score),[37],-0.424
same,glycan array binding signal (z-score),[38],0.91

# In a second layout: entries from further up
binder	measurement	setting	value
MtEccB1 (Mycobacterium tuberculosis H37Rv), O69734 (protein) MGLRLTTKVQVSGWRFLLRRLEHAIVRRDTRMFDDPLQFYSRSIALGIVVAVLILAGAALLAYFKPQGKLGGTSLFTDRATNQLYVLLSGQLHPVYNLTSARLVLGNPANPATVKSSELSKLPMGQTVGIPGAPYATPVSAGSTSIWTLCDTVARADSTSPVVQTAVIAMPLEIDASIDPLQSHEAVLVSYQGETWIVTTKGRHAIDLTDRALTSSMGIPVTARPTPISEGMFNALPDMGPWQLPPIPAAGAPNSLGLPDDLVIGSVFQIHTDKGPQYYVVLPDGIAQVNATTAAALRATQAHGLVAPPAMVPSLVVRIAERVYPSPLPDEPLKIVSRPQDPALCWSWQRSAGDQSPQSTVLSGRHLPISPSAMNMGIKQIHGTATVYLDGGKFVALQSPDPRYTESMYYIDPQGVRYGVPNAETAKSLGLSSPQNAPWEIVRLLVDGPVLSKDAALLEHDTLPADPSPRKVPAGASGAP	glycan array binding signal (z-score)	[14]	-0.719
same	glycan array binding signal (z-score)	[15]	-0.822
same	glycan array binding signal (z-score)	[16]	-2.02
